In article PMC6627374, “Effects of the Pentapeptide P33 on Memory and Synaptic Plasticity in APP/PS1 Transgenic Mice: A Novel Mechanism Presenting the Protein Fe65 as a Target” (International Journal of Molecular Sciences, 2019):
These are yes or no findings as the source states them, for the method shown.

Target: T1, Fe65-WW domain (human) (UniProt O00213)
T1 sequence (chain, acetyl (acetyl-Fe65-WW)): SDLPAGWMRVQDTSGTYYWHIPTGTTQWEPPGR
Assay: condition: 1.056 mM PPPPP in the syringe, 83.5 μM Fe65-WW in the cell; ITC; Microcal VP-ITC; 10-uL portions of ligand (P33 1.006 mM or PPPPP 1.056 mM in the syringe) injected into the WW domain in the cell (Fe65-WW 83.5 uM or Pin1-WW 81.4 uM); degassed PBS pH 7.4, 310 K; dilution heats subtracted; repeated twice; both purified

- binding: no binding
Binder: PPPPP
